According to the supplement of paper PMC10060354, “Discovery of a small molecule ligand of FRS2 that inhibits invasion and tumor growth” (Cellular Oncology, 2022):
Repeats are few or missing, and single values can be far off.

Amino acid sequences for entries named in this document (tags omitted). A change or cut given only in a name is not applied to a line headed by its entry.
UniProt O60306: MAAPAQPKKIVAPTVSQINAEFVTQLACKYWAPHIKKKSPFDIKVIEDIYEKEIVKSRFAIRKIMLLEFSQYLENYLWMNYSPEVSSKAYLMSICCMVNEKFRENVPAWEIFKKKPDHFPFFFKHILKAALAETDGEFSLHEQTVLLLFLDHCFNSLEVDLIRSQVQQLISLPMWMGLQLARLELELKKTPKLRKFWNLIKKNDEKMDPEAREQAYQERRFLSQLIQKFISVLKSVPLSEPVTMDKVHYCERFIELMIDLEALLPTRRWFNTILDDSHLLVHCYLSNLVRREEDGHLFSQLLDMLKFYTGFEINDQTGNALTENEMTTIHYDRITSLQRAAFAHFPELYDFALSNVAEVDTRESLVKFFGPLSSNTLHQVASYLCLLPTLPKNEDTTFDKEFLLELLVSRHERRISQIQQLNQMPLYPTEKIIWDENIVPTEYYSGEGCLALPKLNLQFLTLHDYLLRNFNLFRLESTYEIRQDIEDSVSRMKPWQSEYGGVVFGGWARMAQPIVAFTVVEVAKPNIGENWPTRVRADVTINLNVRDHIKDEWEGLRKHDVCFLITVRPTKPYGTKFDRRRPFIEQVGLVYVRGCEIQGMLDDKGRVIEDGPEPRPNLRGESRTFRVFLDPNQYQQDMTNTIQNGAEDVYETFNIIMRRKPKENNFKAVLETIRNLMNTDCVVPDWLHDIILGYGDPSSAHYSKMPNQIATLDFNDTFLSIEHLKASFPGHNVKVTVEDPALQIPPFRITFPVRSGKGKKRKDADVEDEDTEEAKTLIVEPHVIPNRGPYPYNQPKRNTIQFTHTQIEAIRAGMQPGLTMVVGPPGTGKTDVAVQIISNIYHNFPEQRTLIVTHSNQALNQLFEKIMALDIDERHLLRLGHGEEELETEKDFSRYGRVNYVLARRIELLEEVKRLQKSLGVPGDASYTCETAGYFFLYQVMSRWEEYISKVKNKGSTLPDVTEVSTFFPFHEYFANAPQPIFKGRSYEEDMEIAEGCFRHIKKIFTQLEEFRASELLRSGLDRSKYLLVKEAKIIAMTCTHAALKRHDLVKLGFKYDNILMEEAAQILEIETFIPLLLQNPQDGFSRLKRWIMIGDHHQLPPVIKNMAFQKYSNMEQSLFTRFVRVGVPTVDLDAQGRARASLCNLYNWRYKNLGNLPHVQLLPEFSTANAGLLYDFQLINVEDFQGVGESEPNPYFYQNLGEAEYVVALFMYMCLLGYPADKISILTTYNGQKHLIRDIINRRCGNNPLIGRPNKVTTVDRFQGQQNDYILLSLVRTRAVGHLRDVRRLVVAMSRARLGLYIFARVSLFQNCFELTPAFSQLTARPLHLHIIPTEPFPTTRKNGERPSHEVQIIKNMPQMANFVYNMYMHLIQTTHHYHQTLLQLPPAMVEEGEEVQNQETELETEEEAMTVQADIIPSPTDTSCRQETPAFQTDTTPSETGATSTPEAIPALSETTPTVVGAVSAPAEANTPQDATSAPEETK
UniProt Q14257: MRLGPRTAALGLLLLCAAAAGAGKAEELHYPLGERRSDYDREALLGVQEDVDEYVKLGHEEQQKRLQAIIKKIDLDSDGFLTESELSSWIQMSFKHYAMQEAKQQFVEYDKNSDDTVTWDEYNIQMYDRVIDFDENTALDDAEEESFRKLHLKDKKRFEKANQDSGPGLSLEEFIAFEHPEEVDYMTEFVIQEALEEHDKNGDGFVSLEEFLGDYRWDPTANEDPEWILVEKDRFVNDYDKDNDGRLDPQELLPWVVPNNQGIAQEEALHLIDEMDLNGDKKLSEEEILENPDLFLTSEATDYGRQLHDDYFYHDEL
UniProt Q969M7: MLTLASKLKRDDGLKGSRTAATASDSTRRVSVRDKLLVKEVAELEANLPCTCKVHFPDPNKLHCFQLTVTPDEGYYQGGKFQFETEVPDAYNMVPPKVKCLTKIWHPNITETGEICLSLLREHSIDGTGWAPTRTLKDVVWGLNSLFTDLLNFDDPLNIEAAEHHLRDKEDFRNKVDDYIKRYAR
UniProt O94782: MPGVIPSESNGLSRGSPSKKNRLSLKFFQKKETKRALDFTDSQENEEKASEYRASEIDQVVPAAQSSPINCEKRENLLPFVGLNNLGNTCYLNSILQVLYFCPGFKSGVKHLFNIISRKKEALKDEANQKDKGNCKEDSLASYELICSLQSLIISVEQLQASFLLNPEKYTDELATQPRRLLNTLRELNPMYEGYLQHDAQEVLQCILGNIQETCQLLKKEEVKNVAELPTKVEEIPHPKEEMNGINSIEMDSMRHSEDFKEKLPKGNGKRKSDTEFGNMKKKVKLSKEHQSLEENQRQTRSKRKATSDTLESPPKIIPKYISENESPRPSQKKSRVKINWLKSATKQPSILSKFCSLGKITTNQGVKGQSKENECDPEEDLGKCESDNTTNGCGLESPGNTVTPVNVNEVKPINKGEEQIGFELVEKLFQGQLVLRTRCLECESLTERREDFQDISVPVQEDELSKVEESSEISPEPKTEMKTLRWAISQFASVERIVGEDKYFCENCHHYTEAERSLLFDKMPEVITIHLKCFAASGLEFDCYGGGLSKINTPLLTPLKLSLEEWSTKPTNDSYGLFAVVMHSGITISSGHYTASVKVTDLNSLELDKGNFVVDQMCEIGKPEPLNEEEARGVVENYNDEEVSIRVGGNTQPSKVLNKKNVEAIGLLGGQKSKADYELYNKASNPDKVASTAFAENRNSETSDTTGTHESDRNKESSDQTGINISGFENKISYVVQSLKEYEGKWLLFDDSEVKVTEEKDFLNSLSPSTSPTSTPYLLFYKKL
UniProt Q96I51, whole entry, looked up: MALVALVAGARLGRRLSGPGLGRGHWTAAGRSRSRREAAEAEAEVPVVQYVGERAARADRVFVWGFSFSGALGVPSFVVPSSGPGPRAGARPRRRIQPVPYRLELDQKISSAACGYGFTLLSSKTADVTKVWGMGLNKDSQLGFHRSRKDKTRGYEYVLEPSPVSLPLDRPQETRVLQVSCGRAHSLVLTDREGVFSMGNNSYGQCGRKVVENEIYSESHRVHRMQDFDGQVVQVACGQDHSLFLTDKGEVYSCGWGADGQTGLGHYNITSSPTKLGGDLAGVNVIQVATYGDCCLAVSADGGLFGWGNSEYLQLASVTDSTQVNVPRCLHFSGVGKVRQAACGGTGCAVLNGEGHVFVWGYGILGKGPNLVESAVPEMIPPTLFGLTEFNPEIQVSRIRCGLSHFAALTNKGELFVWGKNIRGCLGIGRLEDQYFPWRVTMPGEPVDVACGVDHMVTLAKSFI
UniProt Q8WZA9: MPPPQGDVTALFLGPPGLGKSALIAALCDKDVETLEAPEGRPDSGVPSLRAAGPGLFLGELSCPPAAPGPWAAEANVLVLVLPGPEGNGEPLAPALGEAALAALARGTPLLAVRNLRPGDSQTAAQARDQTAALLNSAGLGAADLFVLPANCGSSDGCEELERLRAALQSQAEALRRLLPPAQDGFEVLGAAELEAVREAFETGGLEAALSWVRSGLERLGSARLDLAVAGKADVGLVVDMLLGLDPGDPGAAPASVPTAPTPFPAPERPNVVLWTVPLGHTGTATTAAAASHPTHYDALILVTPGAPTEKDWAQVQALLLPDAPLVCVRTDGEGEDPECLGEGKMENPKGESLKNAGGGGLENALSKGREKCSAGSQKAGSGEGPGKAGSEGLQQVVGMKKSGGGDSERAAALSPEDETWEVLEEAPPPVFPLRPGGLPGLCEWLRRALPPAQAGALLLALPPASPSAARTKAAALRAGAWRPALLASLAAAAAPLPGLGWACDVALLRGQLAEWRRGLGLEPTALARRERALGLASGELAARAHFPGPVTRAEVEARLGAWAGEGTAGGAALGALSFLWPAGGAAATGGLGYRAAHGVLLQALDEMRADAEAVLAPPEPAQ
UniProt P54687: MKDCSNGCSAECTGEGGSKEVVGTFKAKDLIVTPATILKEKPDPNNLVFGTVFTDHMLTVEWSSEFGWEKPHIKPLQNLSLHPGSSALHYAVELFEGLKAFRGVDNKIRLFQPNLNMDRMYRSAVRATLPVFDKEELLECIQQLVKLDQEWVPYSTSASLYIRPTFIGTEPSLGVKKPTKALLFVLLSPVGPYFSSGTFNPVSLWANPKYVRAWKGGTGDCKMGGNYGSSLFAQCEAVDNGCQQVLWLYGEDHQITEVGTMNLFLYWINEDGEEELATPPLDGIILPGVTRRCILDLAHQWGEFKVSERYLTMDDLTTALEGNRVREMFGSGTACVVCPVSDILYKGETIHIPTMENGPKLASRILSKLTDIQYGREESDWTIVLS
UniProt Q92556, whole entry: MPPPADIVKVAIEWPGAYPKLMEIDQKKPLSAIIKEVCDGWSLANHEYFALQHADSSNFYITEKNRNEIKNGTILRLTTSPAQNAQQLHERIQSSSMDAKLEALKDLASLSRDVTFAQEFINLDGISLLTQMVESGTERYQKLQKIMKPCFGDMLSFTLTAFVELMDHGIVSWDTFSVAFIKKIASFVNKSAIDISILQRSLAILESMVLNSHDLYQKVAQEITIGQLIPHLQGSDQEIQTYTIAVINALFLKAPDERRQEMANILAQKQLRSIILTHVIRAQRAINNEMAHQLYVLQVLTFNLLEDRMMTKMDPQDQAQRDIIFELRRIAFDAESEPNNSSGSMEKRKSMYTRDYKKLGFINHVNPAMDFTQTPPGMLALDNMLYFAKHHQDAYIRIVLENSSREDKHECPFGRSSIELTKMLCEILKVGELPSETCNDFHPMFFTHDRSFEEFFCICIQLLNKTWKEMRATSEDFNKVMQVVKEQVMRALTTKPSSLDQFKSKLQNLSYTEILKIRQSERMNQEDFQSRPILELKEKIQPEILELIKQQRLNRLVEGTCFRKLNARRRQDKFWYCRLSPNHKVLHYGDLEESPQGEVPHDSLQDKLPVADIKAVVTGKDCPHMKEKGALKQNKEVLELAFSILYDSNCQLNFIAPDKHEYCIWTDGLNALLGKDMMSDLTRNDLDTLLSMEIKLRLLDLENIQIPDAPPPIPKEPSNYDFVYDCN
UniProt Q8N668, whole entry: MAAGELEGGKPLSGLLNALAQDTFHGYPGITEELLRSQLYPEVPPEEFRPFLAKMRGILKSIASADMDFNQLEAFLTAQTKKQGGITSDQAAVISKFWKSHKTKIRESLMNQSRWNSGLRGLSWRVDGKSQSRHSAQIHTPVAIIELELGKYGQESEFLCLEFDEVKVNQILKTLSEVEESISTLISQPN
UniProt Q8N6R0: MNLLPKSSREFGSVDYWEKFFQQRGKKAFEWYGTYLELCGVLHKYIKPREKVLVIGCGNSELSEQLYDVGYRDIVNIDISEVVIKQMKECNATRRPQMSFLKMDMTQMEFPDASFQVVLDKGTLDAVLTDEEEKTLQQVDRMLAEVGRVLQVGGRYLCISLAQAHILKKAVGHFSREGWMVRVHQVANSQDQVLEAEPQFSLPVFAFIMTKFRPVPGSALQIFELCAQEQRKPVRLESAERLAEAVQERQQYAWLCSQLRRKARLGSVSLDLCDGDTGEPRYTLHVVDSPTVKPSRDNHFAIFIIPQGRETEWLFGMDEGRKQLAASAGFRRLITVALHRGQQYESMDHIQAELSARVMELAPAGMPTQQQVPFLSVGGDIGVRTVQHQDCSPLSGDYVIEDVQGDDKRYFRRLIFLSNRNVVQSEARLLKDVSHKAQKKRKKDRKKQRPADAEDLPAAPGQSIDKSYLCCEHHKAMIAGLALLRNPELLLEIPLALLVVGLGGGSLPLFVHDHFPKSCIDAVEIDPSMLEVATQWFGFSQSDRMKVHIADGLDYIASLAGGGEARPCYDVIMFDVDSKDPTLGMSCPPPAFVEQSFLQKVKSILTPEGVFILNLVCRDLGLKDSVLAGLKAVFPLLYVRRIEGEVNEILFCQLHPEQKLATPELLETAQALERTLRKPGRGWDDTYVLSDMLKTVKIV
UniProt P16083: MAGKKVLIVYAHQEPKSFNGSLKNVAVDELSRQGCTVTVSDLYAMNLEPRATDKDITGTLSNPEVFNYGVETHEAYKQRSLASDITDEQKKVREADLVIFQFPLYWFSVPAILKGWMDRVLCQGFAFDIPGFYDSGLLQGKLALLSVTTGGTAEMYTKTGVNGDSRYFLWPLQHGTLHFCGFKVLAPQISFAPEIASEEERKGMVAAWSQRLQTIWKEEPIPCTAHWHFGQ
UniProt Q99615: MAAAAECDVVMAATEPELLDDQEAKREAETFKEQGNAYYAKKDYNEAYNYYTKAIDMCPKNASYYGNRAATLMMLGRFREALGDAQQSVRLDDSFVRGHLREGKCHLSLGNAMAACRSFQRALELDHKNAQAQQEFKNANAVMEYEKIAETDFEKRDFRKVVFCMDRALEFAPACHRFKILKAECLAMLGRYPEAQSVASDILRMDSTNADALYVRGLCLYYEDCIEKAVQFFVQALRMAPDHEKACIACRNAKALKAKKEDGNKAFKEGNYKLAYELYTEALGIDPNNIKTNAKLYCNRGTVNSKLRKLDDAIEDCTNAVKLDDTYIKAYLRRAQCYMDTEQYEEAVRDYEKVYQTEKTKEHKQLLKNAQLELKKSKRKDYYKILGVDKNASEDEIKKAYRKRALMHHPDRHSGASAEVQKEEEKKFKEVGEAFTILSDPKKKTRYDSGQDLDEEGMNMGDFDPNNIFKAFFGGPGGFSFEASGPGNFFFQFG

Compound: [O-][N+](C(C1=C(C(O)=C2)NC(C(C=C3)=CC=C3Cl)C4C1C=CC4)=C2Cl)=O
Test: melting temperature shift (compound 7 minus DMSO); higher = compound stabilises the protein
Settings: 10 µM
Procedure: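 Thermal proteome profiling (TMT mass spectrometry) in intact DAOY medulloblastoma cells or DAOY lysates treated with 10 µM compound 7 or DMSO, heated at 10 temperatures from 40.5 to 73.8 °C for 3 min. Melting curves were fitted with the Bioconductor TPP package, and the melting point difference between compound and vehicle is reported per protein (single curve per condition).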

[1] = system: DAOY cell lysate, treatment time: 20 min, 4 °C
[2] = system: intact DAOY cells, treatment time: 90 min, 37 °C

Row | Target | melting temperature shift [1] [°C] | melting temperature shift [2] [°C]
1 | CWC27 (UniProt Q6UX04) | 0.386 | 0.549
2 | GLT8D1 (UniProt Q68CQ7) | 2.43 | –
3 | NADK2 (UniProt Q4G0N4) | -0.507 | -0.504
4 | C10ORF76 (UniProt Q5T2E6) | -2.33 | -0.267
5 | UniProt Q8IZP2 | – | 0.122
6 | ABLIM1 (UniProt O14639) | – | -1.44
7 | AQR (UniProt O60306) | -0.223 | 1.34
8 | UniProt O75084 | – | -2.85
9 | STAMBPL1 (UniProt Q96FJ0) | – | -0.396
10 | DCTN4 (UniProt Q9UJW0) | -0.905 | 0.649
11 | UniProt Q8IXU6 | 0.686 | 4.14
12 | UniProt P15153 | 0.0134 | -0.381
13 | UniProt Q96LZ7 | 7.31 | –
14 | CPNE1 (UniProt Q99829) | -0.36 | 0.445
15 | HPS6 (UniProt Q86YV9) | -2.12 | –
16 | BPNT1 (UniProt O95861) | -0.171 | -0.864
17 | BUD31 (UniProt P41223) | 0.278 | -0.25
18 | GALK1 (UniProt P51570) | -0.423 | -1.7
19 | MSTO1 (UniProt Q9BUK6) | -0.509 | -0.672
20 | MIF (UniProt P14174) | -0.204 | -1.55
21 | RCN2 (UniProt Q14257) | 0.0681 | 1.11
22 | OAS3 (UniProt Q9Y6K5) | -1.68 | -1.22
23 | UniProt Q96CG8 | 0.024 | 0.539

Row | Target | melting temperature shift [1] [°C] | melting temperature shift [2] [°C]
24 | ROBO1 (UniProt Q9Y6N7) | -1.51 | –
25 | UBE2F (UniProt Q969M7) | 0.277 | -0.521
26 | VEZT (UniProt Q9HBM0) | 0.423 | -0.0848
27 | GTF2F1 (UniProt P35269) | -1.06 | -0.865
28 | NEMF (UniProt O60524) | -1.27 | 0.24
29 | HMMR (UniProt O75330) | 0.041 | -0.101
30 | MINPP1 (UniProt Q9UNW1) | -0.357 | 0.45
31 | ATXN2 (UniProt Q99700) | -0.716 | -0.165
32 | DDOST (UniProt P39656) | 1.29 | -0.426
33 | KATNA1 (UniProt O75449) | -0.0811 | -0.69
34 | FAM134C (UniProt Q86VR2) | 3.79 | -3.02
35 | PRPF38B (UniProt Q5VTL8) | 0.57 | 0.0255
36 | ZFR (UniProt Q96KR1) | 0.228 | -0.0421
37 | RIC8B (UniProt Q9NVN3) | -1.96 | -0.923
38 | RSBN1L (UniProt Q6PCB5) | -1.03 | -1.41
39 | PPT1 (UniProt P50897) | -0.253 | -4.25
40 | NDUFB10 (UniProt O96000) | 1.6 | -0.45
41 | GPCPD1 (UniProt Q9NPB8) | -1.24 | 0.227
42 | KPNA2 (UniProt P52292) | -0.469 | 0.25
43 | MRPS31 (UniProt Q92665) | -0.329 | -0.726
44 | HAUS1 (UniProt Q96CS2) | -1.04 | -0.0536
45 | UniProt Q99712 | – | 0.728
46 | UniProt Q9UBG7 | – | -2.07

Row | Target | melting temperature shift [1] [°C] | melting temperature shift [2] [°C]
47 | UniProt P48729 | 0.445 | 0.185
48 | NDC80 (UniProt O14777) | -0.618 | -1.38
49 | TTYH3 (UniProt Q9C0H2) | 0.279 | –
50 | BID (UniProt P55957) | 6.2 | -0.407
51 | RALY (UniProt Q9UKM9) | 0.953 | -0.213
52 | NPC1 (UniProt O15118) | 0.31 | -0.187
53 | UniProt P0C7P4 | – | -1.7
54 | YRDC (UniProt Q86U90) | -0.463 | 0.0187
55 | UniProt Q9NX08 | -0.317 | -0.483
56 | TRIM47 (UniProt Q96LD4) | -0.85 | 1.12
57 | MTG1 (UniProt Q9BT17) | – | -1.39
58 | PRMT1 (UniProt Q99873) | -0.276 | -0.443
59 | RPS6 (UniProt P62753) | 0.764 | -0.767
60 | UniProt Q86UB9 | – | 4.61
61 | USP1 (UniProt O94782) | -0.372 | 1.73
62 | UniProt Q8N9R8 | 0.347 | –
63 | UniProt Q96Q83 | 3.02 | –
64 | WBSCR16 (UniProt Q96I51) | 0.458 | -0.555
65 | RIOK1 (UniProt Q9BRS2) | -0.728 | -1.09
66 | POLR2E (UniProt P19388) | -0.11 | 0.638
67 | UniProt P80303 | 1.16 | –
68 | ARHGAP5 (UniProt Q13017) | -1.32 | –
69 | IRGQ (UniProt Q8WZA9) | -0.505 | 0.0211

Row | Target | melting temperature shift [1] [°C] | melting temperature shift [2] [°C]
70 | UniProt P54687 | -0.884 | -1.9
71 | SLC25A5 (UniProt P05141) | 2.03 | 0.737
72 | UniProt Q92556 | – | 2.37
73 | MMS19 (UniProt Q96T76) | -0.393 | -0.00615
74 | DDX47 (UniProt Q9H0S4) | 0.21 | 0.0518
75 | ATG13 (UniProt O75143) | 1.01 | 1.82
76 | COMMD1 (UniProt Q8N668) | 0.231 | -0.109
77 | UniProt O60361 | – | -0.262
78 | HK1 (UniProt P19367) | 0.134 | -0.624
79 | PFKP (UniProt Q01813) | -0.516 | -0.916
80 | UniProt O00398 | -1.59 | –
81 | UniProt Q53FV1 | 0.74 | -0.609
82 | HGH1 (UniProt Q9BTY7) | 0.708 | -2.18
83 | PTPN23 (UniProt Q9H3S7) | 0.174 | 1.19
84 | UGP2 (UniProt Q16851) | -0.53 | -0.506
85 | UniProt Q9Y6J9 | -0.0579 | -0.772
86 | METTL13 (UniProt Q8N6R0) | -0.6 | -0.702
87 | UniProt Q8N9E0 | – | -1.33
88 | STK17B (UniProt O94768) | -1.85 | 1.51
89 | UniProt Q13761 | – | -1.53
90 | LMO7 (UniProt Q8WWI1) | 1.06 | -0.419
91 | CAPN2 (UniProt P17655) | -0.203 | -0.218
92 | UniProt A6NHC0 | – | -1.71

Row | Target | melting temperature shift [1] [°C] | melting temperature shift [2] [°C]
93 | UniProt Q13948 | – | 0.0797
94 | ATP13A1 (UniProt Q9HD20) | -4 | -1.63
95 | NQO2 (UniProt P16083) | -0.815 | –
96 | UniProt Q9NWT8 | 2.19 | -0.942
97 | P0DI82 (UniProt P0DI81) | -1.05 | –
98 | PDLIM1 (UniProt O00151) | -4.7 | –
99 | CDC42BPB (UniProt Q9Y5S2) | -0.485 | -0.0863
100 | ATPAF2 (UniProt Q8N5M1) | -0.947 | -0.319
101 | POR (UniProt P16435) | 0.55 | -0.337
102 | EDIL3 (UniProt O43854) | 1.2 | 3.13
103 | UniProt P49753 | – | 1.07
104 | FIBP (UniProt O43427) | -0.0657 | -1.25
105 | MTA2 (UniProt O94776) | -0.114 | -0.906
106 | COX19 (UniProt Q49B96) | – | 0.523
107 | YME1L1 (UniProt Q96TA2) | 1.13 | -1.66
108 | UniProt Q5TAT6 | 0.983 | –
109 | PUS7L (UniProt Q9H0K6) | -0.335 | -0.472
110 | TAB2 (UniProt Q9NYJ8) | -0.944 | 1.02
111 | DNAJC7 (UniProt Q99615) | -0.392 | -1.02
112 | RAB11FIP1 (UniProt Q6WKZ4) | -0.518 | –
113 | UniProt Q8N4A0 | – | 1.46

Random excerpt: three entries already listed.
Row | Target | melting temperature shift [1] [°C] | melting temperature shift [2] [°C]
7 | AQR (UniProt O60306) | -0.223 | 1.34
58 | PRMT1 (UniProt Q99873) | -0.276 | -0.443
41 | GPCPD1 (UniProt Q9NPB8) | -1.24 | 0.227
